Source: PMC6528313

Molecular target: S2Lb-GFP (SWD2-like b, GFP-tagged) (Arabidopsis thaliana)
Test: affinity purification with mass spectrometry; GFP-trap immuno-isolation from 2 g of 10-day-old pS2Lb::S2Lb-GFP seedlings in modified RIPA buffer, wild-type Col-0 as negative control, four biological replicates; LC-MS/MS

B1: CDKC;1 (enzyme, UniProt Q9LFT8 1-505)
chain: MAMASFGQLNLEEPPPIWGSRSVDCFEKLEQIGEGTYGQVYMAKEIKTGEIVALKKIRMDNEREGFPITAIREIKILKKLHHENVIQLKEIVTSPGRDRDDQGKPDNNKYKGGIYMVFEYMDHDLTGLADRPGLRFTVPQIKCYMKQLLTGLHYCHVNQVLHRDIKGSNLLIDNEGNLKLADFGLARSYSHDHTGNLTNRVITLWYRPPELLLGATKYGPAIDMWSVGCIFAELLHAKPILPGKNEQEQLNKIFELCGSPDEKLWPGVSKMPWFNNFKPARPLKRRVREFFRHFDRHALELLEKMLVLDPAQRISAKDALDAEYFWTDPLPCDPKSLPTYESSHEFQTKKKRQQQRQNEEAAKRQKLQHPPLQHSRLPPLQHGGQSHAAPHWPAGPNHPTNNAPPQVPAGPSHNFYGKPRGPPGPNRYPPSGNQSGGYNQSRGGYSSGSYPPQGRGAPYVAGPRGPSGGPYGVGPPNYTQGGQYGGSGSSGRGQNQRNQQYGWQQ
- binding: binds

No constants are given. Whether binding was seen depends on the method and setting. In cells and extracts the contact can be indirect. Here binding means that the protein was enriched with, or labelled near, the bait; the list need not be complete.
